These are yes or no findings as the source states them, for the method shown. In cells and extracts the contact can be indirect. Some results given as binding are weak or reduced against the parent protein; the word gives no strength. Tags and fused reporters may be left off the sequences shown.
Columns and labels:
SIN3A-HaloTag (human) = target: T1, SIN3A-HaloTag (human) (UniProt Q96ST3); assay: cross-linking; SIN3A-HaloTag or SIN3B_2-HaloTag from Flp-In-293 cells enriched on Magne HaloTag Beads; 5 mM DSSO on the beads, room temperature, 40 min; eluted with AcTEV Protease; cross-linked peptides found by mass spectrometry (XlinkX, FDR 0.01)
T1 sequence: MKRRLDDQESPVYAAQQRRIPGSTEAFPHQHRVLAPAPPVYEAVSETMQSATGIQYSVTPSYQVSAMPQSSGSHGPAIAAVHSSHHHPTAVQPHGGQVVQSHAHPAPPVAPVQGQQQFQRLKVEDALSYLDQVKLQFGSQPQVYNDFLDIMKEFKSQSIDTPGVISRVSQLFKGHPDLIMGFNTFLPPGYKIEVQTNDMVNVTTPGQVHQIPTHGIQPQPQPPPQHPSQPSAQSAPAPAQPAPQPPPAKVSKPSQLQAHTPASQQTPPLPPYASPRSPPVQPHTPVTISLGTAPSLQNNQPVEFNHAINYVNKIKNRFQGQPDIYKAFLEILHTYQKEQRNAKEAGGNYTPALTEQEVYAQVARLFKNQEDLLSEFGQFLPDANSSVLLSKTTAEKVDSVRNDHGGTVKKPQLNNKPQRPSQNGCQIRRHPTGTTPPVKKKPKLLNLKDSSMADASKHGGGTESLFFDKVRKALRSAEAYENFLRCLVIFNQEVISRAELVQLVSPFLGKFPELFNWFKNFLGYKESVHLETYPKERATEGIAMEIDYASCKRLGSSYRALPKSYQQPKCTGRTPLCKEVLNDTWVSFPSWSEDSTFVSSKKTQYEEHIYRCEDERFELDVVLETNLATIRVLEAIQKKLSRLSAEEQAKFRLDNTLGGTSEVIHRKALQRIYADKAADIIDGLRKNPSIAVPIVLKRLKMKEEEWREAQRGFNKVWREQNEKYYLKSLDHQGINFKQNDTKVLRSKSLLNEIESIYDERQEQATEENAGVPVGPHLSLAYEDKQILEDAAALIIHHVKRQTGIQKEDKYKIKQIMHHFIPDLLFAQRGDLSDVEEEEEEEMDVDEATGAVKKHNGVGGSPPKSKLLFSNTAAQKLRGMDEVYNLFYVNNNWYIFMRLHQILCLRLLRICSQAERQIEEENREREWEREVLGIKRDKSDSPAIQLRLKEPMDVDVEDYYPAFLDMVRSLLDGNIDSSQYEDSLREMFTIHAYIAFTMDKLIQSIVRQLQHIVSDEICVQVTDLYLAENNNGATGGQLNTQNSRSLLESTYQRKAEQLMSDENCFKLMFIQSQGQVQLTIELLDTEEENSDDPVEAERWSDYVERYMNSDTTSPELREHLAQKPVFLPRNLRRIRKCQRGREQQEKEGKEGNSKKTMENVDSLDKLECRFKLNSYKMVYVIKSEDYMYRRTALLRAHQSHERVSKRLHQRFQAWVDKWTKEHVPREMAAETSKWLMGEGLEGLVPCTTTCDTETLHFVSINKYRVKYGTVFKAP

Protein sequences, listed by entry. Tags and fused reporters are not part of them.
UniProt Q13547: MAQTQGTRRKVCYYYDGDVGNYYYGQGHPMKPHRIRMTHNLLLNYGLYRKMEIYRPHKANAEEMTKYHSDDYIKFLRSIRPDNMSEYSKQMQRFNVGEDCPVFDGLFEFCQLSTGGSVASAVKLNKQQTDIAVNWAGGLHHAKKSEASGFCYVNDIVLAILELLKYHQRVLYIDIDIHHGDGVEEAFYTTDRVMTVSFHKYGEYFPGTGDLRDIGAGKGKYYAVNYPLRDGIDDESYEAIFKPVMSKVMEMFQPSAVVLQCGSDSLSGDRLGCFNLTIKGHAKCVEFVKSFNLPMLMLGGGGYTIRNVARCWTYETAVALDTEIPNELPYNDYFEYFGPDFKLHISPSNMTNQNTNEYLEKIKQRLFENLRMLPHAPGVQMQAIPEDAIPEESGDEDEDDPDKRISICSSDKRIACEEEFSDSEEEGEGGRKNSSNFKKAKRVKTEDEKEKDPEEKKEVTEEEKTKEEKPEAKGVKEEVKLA
UniProt Q92769: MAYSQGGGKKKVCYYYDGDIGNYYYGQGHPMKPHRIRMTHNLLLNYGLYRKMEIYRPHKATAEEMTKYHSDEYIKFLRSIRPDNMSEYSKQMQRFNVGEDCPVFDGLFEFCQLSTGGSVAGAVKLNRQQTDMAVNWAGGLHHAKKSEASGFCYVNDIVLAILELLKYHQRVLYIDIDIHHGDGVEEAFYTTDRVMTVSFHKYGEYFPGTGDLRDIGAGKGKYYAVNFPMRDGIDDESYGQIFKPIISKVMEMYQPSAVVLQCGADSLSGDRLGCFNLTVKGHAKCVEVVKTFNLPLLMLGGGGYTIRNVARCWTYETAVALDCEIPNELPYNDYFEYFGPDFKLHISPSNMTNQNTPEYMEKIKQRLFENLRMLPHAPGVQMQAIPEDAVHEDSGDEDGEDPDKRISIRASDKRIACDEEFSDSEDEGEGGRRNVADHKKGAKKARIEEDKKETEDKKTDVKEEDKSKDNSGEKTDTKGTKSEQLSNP
UniProt Q96QT6: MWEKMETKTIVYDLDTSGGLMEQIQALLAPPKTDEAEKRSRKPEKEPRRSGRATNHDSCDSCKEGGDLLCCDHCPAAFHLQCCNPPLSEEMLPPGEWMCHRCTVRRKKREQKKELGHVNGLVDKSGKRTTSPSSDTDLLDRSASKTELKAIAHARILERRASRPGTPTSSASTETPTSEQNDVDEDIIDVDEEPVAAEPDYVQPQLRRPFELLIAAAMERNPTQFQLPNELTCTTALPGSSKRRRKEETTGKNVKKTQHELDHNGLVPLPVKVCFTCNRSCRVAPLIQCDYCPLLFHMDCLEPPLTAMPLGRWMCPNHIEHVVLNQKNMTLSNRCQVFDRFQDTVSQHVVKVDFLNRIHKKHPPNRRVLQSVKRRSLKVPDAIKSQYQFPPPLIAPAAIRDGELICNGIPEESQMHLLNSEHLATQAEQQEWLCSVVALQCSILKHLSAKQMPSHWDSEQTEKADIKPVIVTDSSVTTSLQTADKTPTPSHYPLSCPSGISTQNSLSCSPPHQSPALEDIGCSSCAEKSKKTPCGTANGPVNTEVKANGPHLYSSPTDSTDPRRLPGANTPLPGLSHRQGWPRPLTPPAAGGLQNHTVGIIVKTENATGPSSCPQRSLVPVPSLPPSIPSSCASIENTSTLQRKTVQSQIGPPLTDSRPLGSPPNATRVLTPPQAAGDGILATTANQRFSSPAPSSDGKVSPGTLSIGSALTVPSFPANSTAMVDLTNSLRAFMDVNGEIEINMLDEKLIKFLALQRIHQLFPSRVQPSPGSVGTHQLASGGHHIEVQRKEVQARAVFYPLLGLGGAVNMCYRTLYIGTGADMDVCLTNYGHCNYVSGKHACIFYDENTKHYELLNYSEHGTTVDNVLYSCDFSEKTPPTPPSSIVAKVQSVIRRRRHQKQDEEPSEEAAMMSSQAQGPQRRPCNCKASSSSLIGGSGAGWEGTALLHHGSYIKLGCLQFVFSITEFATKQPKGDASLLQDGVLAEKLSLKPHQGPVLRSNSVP

SIN3B_2-HaloTag (human) = target: T2, SIN3B_2-HaloTag (human) (UniProt O75182); assay: as above
T2 sequence: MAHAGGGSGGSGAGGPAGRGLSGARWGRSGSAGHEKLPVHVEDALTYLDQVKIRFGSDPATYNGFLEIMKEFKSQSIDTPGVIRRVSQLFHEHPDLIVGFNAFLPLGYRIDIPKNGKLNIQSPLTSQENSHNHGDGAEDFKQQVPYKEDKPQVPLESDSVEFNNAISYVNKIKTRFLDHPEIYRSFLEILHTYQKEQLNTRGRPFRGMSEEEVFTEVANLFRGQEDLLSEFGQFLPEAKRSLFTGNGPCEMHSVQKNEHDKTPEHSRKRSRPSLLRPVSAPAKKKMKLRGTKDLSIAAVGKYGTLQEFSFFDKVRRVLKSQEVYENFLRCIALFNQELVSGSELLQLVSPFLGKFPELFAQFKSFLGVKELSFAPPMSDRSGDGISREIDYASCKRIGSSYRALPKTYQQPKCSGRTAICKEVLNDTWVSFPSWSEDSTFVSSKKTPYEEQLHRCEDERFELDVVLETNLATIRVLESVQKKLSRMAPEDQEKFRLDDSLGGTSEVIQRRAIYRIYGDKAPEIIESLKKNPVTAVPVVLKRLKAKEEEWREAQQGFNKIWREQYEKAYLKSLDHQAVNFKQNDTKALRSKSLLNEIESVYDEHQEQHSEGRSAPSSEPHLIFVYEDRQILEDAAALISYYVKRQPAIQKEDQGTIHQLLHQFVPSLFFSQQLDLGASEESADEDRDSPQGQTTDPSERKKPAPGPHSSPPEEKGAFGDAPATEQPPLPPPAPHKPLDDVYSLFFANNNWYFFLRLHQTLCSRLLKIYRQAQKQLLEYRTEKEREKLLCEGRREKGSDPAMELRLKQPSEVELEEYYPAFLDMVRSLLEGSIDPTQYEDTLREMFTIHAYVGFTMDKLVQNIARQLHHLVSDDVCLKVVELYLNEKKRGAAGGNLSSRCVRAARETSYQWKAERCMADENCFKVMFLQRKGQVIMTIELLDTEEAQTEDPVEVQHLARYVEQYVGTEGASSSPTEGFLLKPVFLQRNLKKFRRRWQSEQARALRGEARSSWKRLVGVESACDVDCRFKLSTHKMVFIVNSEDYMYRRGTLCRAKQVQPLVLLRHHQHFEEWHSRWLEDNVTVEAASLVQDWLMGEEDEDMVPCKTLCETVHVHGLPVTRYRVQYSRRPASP

binding (SIN3A-HaloTag (human)) | binding (SIN3B_2-HaloTag (human)) | Substance
binds | binds | HDAC1 (from UniProt Q13547 1-482)
binds | binds | HDAC2 (from UniProt Q92769 1-488)
 | binds | PHF12 (from UniProt Q96QT6 1-1004)

From publication PMC8143632
